Patent US4190646A (Sloan-Kettering Institute for Cancer Research, priority 1979, dated 1980)
HELM strings list residues between dots; [ac] is acetyl, [am] amide, other brackets name non-standard units.

Experiment: Boc solid-phase peptide synthesis; chloromethylated resin; dicyclohexyl carbodiimide
Conditions: whole synthesis, scale 2 m moles

## PEPTIDE1{R.K.D.V.Y}$$$$V2.0
  final purity (method not given): 94%
